Test results: patent US20040033899A1, “5[(pyrazol-4-yl)carbonyl]benzazolone as herbicide” (priority 2000, published 2004)
The name of at least one read-out is uncertain.

Assays:
Assay in all cases: greenhouse post-emergence herbicidal test
ECHCG = format: in vivo, barnyardgrass
Text: (§1) The seeds of the test plants were sown separately for each species. For the post-emergence treatment, the test plants were first grown to a plant height of from 3 to 15 cm, depending on the plant habit, and only then treated with the active compounds which had been suspended or emulsified in water. To this end, the test plants were either sown directly and grown in the same containers, or they were first grown separately as seedlings and transplanted into the test containers a few days prior to treatment. The rate of application for the post-emergence treatment was 31.3, 62.5, 125 and/or 250 g of a.s. (active substance) /ha. Depending on the species, the plants were kept at from 10 to 25° C., or 20-35° C., respectively. The test period extended over 2 to 4 weeks. During this time, the plants were tended, and their response to the individual treatments was evaluated. Evaluation was carried out using a scale of from 0 to 100. 100 means no emergence of the plants, or complete destruction of at least the aerial parts, and 0 means no damage, or normal course of growth. A damage of at least 95% corresponds to very good herbicidal action. The plants used in the greenhouse experiments were of the following species: [table]

CHEAL = format: in vivo, lambsquarters (goosefoot)
Text: as §1

SETFA = format: in vivo, giant foxtail
Text: as §1

Structure (SMILES) | herbicidal action against SETFA (SETFA; 125 or 250 g/ha (a.s.)) | herbicidal action against ECHCG (ECHCG; 125 or 250 g/ha (a.s.)) | herbicidal action against CHEAL (CHEAL; 125 or 250 g/ha (a.s.)) | other results
Cc1c(C(=O)c2cnn(C(C)C)c2O)ccc2sc(=O)n(C)c12 [Example I-1c.1129, 3,4-dimethyl-5-(5′-hydroxy-1′-isopropylpyrazol-4-yl)carbonylbenzothiazol-2-one] | – | – | – | herbicidal action against ECHCG (ECHCG; 31.3 or 62.5 g/ha (a.s.)): very good herbicidal action (A damage of at least 95% corresponds to very good herbicidal action); herbicidal action against CHEAL (CHEAL; 31.3 or 62.5 g/ha (a.s.)): very good herbicidal action (A damage of at least 95% corresponds to very good herbicidal action)
CCn1ncc(C(=O)c2ccc3sc(=O)n(CC)c3c2C)c1OCc1ccccc1 [Example I-1h.1131] | very good herbicidal action (A damage of at least 95% corresponds to very good herbicidal action) | very good herbicidal action (A damage of at least 95% corresponds to very good herbicidal action) | very good herbicidal action (A damage of at least 95% corresponds to very good herbicidal action) | –
CCCCn1c(=O)oc2ccc(C(=O)c3cnn(C)c3O)c(C)c21 [Example I-1a.6] | very good herbicidal action (A damage of at least 95% corresponds to very good herbicidal action) | – | very good herbicidal action (A damage of at least 95% corresponds to very good herbicidal action) | –
CCn1c(=O)sc2ccc(C(=O)c3cnn(C(C)(C)C)c3O)c(C)c21 [Example I-1d.1131] | very good herbicidal action (A damage of at least 95% corresponds to very good herbicidal action) | very good herbicidal action (A damage of at least 95% corresponds to very good herbicidal action) | very good herbicidal action (A damage of at least 95% corresponds to very good herbicidal action) | –
CCn1c(=O)sc2ccc(C(=O)c3cnn(C(C)C)c3O)c(C)c21 [Example I-1c.1131] | very good herbicidal action (A damage of at least 95% corresponds to very good herbicidal action) | very good herbicidal action (A damage of at least 95% corresponds to very good herbicidal action) | very good herbicidal action (A damage of at least 95% corresponds to very good herbicidal action) | –
CCn1c(=O)sc2ccc(C(=O)c3cnn(C(C)(C)C)c3OCc3ccccc3)c(C)c21 [Example I-1y.1131] | very good herbicidal action (A damage of at least 95% corresponds to very good herbicidal action) | very good herbicidal action (A damage of at least 95% corresponds to very good herbicidal action) | very good herbicidal action (A damage of at least 95% corresponds to very good herbicidal action) | –
CCCn1c(=O)oc2ccc(C(=O)c3cnn(C)c3O)c(C)c21 [Example I-1a.4] | – | – | – | herbicidal action against SETFA (SETFA; 125 or 62.5 g/ha (a.s.)): very good herbicidal action (A damage of at least 95% corresponds to very good herbicidal action); herbicidal action against ECHCG (ECHCG; 125 or 62.5 g/ha (a.s.)): very good herbicidal action (A damage of at least 95% corresponds to very good herbicidal action); herbicidal action against CHEAL (CHEAL; 125 or 62.5 g/ha (a.s.)): very good herbicidal action (A damage of at least 95% corresponds to very good herbicidal action)
CCn1ncc(C(=O)c2ccc3sc(=O)n(C)c3c2C)c1O [Example I-1b.1129, 3,4-dimethyl-5-(5′-hydroxy-1′-ethylpyrazol-4-yl)carbonylbenzothiazol-2-one] | – | – | – | herbicidal action against ECHCG (ECHCG; 31.3 or 62.5 g/ha (a.s.)): very good herbicidal action (A damage of at least 95% corresponds to very good herbicidal action); herbicidal action against CHEAL (CHEAL; 31.3 or 62.5 g/ha (a.s.)): very good herbicidal action (A damage of at least 95% corresponds to very good herbicidal action)
CCn1c(=O)sc2ccc(C(=O)c3cnn(C)c3O)c(C)c21 [Example I-1a.1131] | very good herbicidal action (A damage of at least 95% corresponds to very good herbicidal action) | very good herbicidal action (A damage of at least 95% corresponds to very good herbicidal action) | very good herbicidal action (A damage of at least 95% corresponds to very good herbicidal action) | –
Cc1c(C(=O)c2cnn(C)c2O)ccc2sc(=O)n(C)c12 [Example I-1a.1129, 3,4-dimethyl-5-(5′-hydroxy-1′-methyl-pyrazol-4-yl)carbonyl benzothiazol-2-one] | – | – | – | herbicidal action against SETFA (SETFA; 31.3 or 62.5 g/ha (a.s.)): very good herbicidal action (A damage of at least 95% corresponds to very good herbicidal action); herbicidal action against CHEAL (CHEAL; 31.3 or 62.5 g/ha (a.s.)): very good herbicidal action (A damage of at least 95% corresponds to very good herbicidal action)
CCn1ncc(C(=O)c2ccc3sc(=O)n(CC)c3c2C)c1O [Example I-1b.1131] | very good herbicidal action (A damage of at least 95% corresponds to very good herbicidal action) | very good herbicidal action (A damage of at least 95% corresponds to very good herbicidal action) | very good herbicidal action (A damage of at least 95% corresponds to very good herbicidal action) | –
